For at least one entry, the source does not settle the construct or the ends of the probe. No signal at the amounts used counts as a negative. At least one verdict was read from the data and is not stated in words by the source.
Tested on: Cdc13 (Naumovozyma castellii)
Assay: EMSA
Conditions: 5'-phosphate on C-strand (DEPA substrate), EMSA: 10 fmol probe, 1.5 ug competitor mix (E. coli DNA, salmon sperm DNA, yeast tRNA), 1x lambda-exonuclease buffer (67 mM glycine-KOH pH 9.4), recombinant protein, label: 32P 3'-deoxy-ATP added to 3' end of C-strand

Row | Sequence | binding result | binding result (high affinity)
1 | GTCACACGTCACACTCTGGGTGTCTGGGTGACTGAGTGTC / CCAGACACCCAGAGTGTGACGTGTGAC [D13S13m] | no binding | –
2 | GTCACACGTCACACTCTGGGTGTCTGGGTGTCTGGGTGTC / ACCCAGAGTGTGACGTGTGAC [D7S19] | binds | –
3 | GTCACACGTCACACTCTGGGTGTCTGGGTGTCTGGGTGTC / CCAGACACCCAGAGTGTGACGTGTGAC [D13S13] | binds | –
4 | GTCACACGTCACACTCTGGGTGTCTGGGTGTCTGGGTGTC / GACACCCAGAGTGTGACGTGTGAC [D10S16] | – | binds

Reference: PMC5562816, “Rap1 and Cdc13 have complementary roles in preventing exonucleolytic degradation of telomere 5′ ends”
